The text below walks through data of publication PMC6939906, “Leucine zipper transcription factor-like 1 binds adaptor protein complex-1 and 2 and participates in trafficking of transferrin receptor 1” (PLoS ONE, 2020).

In this test the target is T1, MBP-LZTFL1 (maltose-binding protein fused with human LZTFL1) (human) (UniProt Q9NQ48).
T1 sequence: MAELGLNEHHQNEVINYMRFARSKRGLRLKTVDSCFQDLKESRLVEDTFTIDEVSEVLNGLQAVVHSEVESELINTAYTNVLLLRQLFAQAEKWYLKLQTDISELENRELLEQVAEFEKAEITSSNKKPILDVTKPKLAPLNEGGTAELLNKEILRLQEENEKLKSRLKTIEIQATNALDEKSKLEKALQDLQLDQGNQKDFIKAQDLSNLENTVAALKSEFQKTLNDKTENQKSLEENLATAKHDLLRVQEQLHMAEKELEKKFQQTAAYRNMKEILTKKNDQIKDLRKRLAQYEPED
The experiment in a line: pull-down; MBP-fused proteins held on amylose resin, purified GST-fused proteins added, overnight at 4°C; blots with anti-MBP and anti-GST; both purified.

These are yes or no findings as the source states them, for the method shown. Tags and fused reporters may be left off the sequences shown.

As for “GST-σ1 (GST-fused σ1 subunit of AP-1) (human)”, the binding entry was “no binding”.

Take “GST-μ1 (GST-fused μ1 subunit of AP-1) (human)”: the binding result was “no binding”.
